Experimental data: PubChem BioAssay AID1259308 (NCATS, 2017)
This is a random part of about 59,000 deposited reagents. Over the whole deposit, about 1,510 (2.6%) were called active. 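Calls use total luciferase alone and ignore viability, so some active siRNAs may act by altering cell number.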 Reagents against one gene are numbered here. Not all columns of the deposit are shown.

Test: 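Candidate targets for better recombinant protein yield in mammalian cells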 (primary screen)
Cell system: human HEK293 embryonic kidney cells stably expressing firefly luciferase (HEK-CMV-Luc2-Hygro)
Knock-down reagent: single siRNA against human genes, 0.8 pmol siRNA per well
Duration: 72 h
Measurement: 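Reporter luminescence and viable-cell signal on separate replicate plates, given as percent of non-targeting control and median/MAD z-scores, plus per-cell luciferase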
Scale: total luciferase, z-score: higher = more reporter protein produced
Hit rule: 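Active when the median/MAD z-score for overall luciferase is greater than 3; a gene was taken forward for validation with new siRNAs if at least two of its three siRNAs passed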
Meaning of the calls: active = raised luciferase; inactive = no rise

AZIN2 (GeneID 113451) #1
- total luciferase, z-score: -1.37
- activity call: inactive

AZIN2 (GeneID 113451) #2
- total luciferase, z-score: 0.0707
- activity call: inactive

AZIN2 (GeneID 113451) #3
- total luciferase, z-score: -0.101
- activity call: inactive

TECR (GeneID 9524) #1
- total luciferase, z-score: 1.46
- activity call: inactive

TECR (GeneID 9524) #2
- total luciferase, z-score: 1.03
- activity call: inactive

TECR (GeneID 9524) #3
- total luciferase, z-score: -2.05
- activity call: inactive

Targets above whose target name starts with A or a (3):
AZIN2 (GeneID 113451) #1
- total luciferase, z-score: -1.37
- activity call: inactive

AZIN2 (GeneID 113451) #2
- total luciferase, z-score: 0.0707
- activity call: inactive

AZIN2 (GeneID 113451) #3
- total luciferase, z-score: -0.101
- activity call: inactive

More records follow.
RPL29P23 (GeneID 646077) #1
- total luciferase, z-score: -1.7
- activity call: inactive

RPL29P23 (GeneID 646077) #2
- total luciferase, z-score: -0.482
- activity call: inactive

RPL29P23 (GeneID 646077) #3
- total luciferase, z-score: -0.274
- activity call: inactive

NTMT2 (GeneID 149281) #1
- total luciferase, z-score: -0.105
- activity call: inactive

NTMT2 (GeneID 149281) #2
- total luciferase, z-score: -0.153
- activity call: inactive

NTMT2 (GeneID 149281) #3
- total luciferase, z-score: -2.1
- activity call: inactive
